Results on four substances are retold here after article doi:10.1101/031336.

By UniProt entry, the sequences of proteins in these tests, tags left out.
UniProt P23330: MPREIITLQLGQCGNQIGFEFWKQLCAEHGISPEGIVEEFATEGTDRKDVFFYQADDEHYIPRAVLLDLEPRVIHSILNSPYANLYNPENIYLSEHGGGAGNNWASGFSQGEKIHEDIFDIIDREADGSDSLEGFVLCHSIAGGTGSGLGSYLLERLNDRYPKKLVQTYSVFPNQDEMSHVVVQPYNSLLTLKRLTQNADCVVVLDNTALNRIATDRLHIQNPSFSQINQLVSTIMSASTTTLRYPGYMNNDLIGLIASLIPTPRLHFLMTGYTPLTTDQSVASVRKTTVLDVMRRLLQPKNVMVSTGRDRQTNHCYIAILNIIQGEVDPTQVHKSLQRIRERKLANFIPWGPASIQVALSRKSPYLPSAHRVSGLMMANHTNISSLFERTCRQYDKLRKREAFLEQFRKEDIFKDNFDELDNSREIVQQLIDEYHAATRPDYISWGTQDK

Residue numbers refer to the chain shown, from its start. No constants are given. Whether binding was seen depends on the method and setting. In cells and extracts the contact can be indirect. A yes stands for co-enrichment or nearness to the bait. Other partners may have been found. A no says only that the protein was not detected with the bait. Tags and fused reporters may be left off the sequences shown.

What all share (assay): affinity purification with mass spectrometry
Test [1] has as its target T1, 2xFlag-huWdr8 wild-type (human) (UniProt Q9P2S5).
T1 sequence: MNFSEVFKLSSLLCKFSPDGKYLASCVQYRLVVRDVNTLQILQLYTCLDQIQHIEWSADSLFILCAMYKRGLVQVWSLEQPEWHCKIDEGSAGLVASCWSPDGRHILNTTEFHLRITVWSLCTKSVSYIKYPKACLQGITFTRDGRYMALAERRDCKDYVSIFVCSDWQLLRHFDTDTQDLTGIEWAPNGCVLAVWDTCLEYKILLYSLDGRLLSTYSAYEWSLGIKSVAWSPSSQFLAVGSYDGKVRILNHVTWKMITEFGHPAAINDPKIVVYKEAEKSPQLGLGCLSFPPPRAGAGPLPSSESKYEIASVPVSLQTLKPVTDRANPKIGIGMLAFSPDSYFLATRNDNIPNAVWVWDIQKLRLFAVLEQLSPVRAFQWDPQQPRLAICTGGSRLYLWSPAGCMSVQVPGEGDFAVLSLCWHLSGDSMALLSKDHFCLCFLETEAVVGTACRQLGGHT

In another test the target is T2, 2xFlag-359/360AA (human) (UniProt Q9P2S5).
T2 sequence: T1 sequence with W359A, D360A

A further test has as its target T3, 2xFlag-196/197AA (human) (UniProt Q9P2S5).
T3 sequence: T1 sequence with W196A, D197A

As for Nedd1, the binding result (in test [1]; in the test with 2xFlag-359/360AA (human); in the test with 2xFlag-196/197AA (human)) was “binds” in each case.

In the case of kinesin-14, the binding entry in test [1] was “no binding”.

Consider γ-tubulin (from UniProt P23330 1-451), for which the binding result (in test [1]; with 2xFlag-359/360AA (human); with 2xFlag-196/197AA (human)) was “binds” each time.

Consider SSX2IP, for which the binding entry in test [1] is listed as “binds”; in the test with 2xFlag-359/360AA (human), “no binding”; with 2xFlag-196/197AA (human), “no binding”.
